Here are results for 63 compounds from PubChem BioAssay AID2685 (National Center for Advancing Translational Sciences (NCATS), 2010).

SMILES strings stand for the structures. The list shows a part of the results. Shown are side measurements of this screen, not its main read-out; they come without a call. The list favours compounds with an active or inconclusive main result. The note in brackets gives the kind of curve behind each potency; many fits are weak.

The assay in a line: qHTS Assay for Lipid Storage Modulators in Drosophila S3 Cells.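 On cell number change: cells counted by Cell Tracker Red CMTPX staining in the red channel.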 The settings on record: BODIPY lipid droplet fluorescence, 18-24 h; for cell number change: measured here: cell count max response, cells fed with added oleic acid. An outline of the steps: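 Drosophila S3 cells loaded with oleic acid (400 uM, as added) and compounds at several concentrations; lipid droplets imaged by 488-nm laser-scanning cytometry, 500–530 nm intensity and object ratio to cell channel. Percent activity normalized to 20 uM Triacsin C.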

The mark [1] stands for this setting: measured here: cell number channel AC50, cells fed with added oleic acid.
The mark [2] stands for this setting: measured here: lipid fluorescence (Fed channel) AC50, cells fed with added oleic acid.

Regarding `Cc1n[nH]c(C)c1S(=O)(=O)N1CCCC(C(=O)NC2CCCc3ccccc32)C1` (stereo not drawn), the cell number change is -63.7%. Under setting [1], the half-maximal activity concentration (AC50) was 29.1 µM [falling, single point]. Also, under setting [2], the AC50 was 0.116 µM [rising, full curve, poor fit].

Regarding `Cc1ccc(NC(=O)c2cc([N+](=O)[O-])ccc2Cl)c(O)c1`, the cell number change is 112%. Under setting [1], the AC50 is 23.1 µM [rising, partial curve]. Under setting [2], the AC50 is 18.4 µM [rising, partial curve].

As for `CS(=O)(=O)c1ccc(C(=O)Nc2cc(-c3ccccc3)nn2-c2ccccc2)cc1`, the cell number change was -0.528%. Also, under setting [2], the concentration at half-maximal activity (AC50) was 0.58 µM [rising, single point].

As to `COc1ccc(-c2ccc3c(c2)c(-c2cccs2)c(-c2cc(OC)cc(OC)c2)n3C)cc1`, the cell number change was determined as 15.5%.

Regarding `CC(=O)Nc1ccc(S(=O)(=O)NCCSCc2cccc(Cl)c2)cc1`, the AC50 under setting [2] was 16.4 µM [falling, partial curve, poor fit].

On to `CC(C)(C)c1cc(OC(=O)C2CCCC2)ccc1O`, for which the cell number change is -24.1%.

On to `COc1ccc(CN2CCN(CCC(C)C)C(CCO)C2)cc1Cn1cncn1` (stereo not drawn), for which the cell number change stood at 11.6%. In addition, under setting [2], the concentration at half-maximal activity (AC50) is 29.1 µM [rising, single point].

For `O=C(CN1C(=O)CCC1=O)Nc1ccc2c3c(cccc13)CC2`, the cell number change was determined as 4.06%. The AC50 under setting [2] was 0.82 µM [rising, full curve, poor fit].

Take `c1ccc(CCN(Cc2ccccc2)Cc2nc(C3CC3)no2)cc1`: the cell number change is -20.8%. Besides, under setting [2], the AC50 is 32.6 µM [falling, single point].

Regarding `O=C(O)c1ccc2c(c1)OCCOCCOCCOCCOCCO2`, the cell number change is -3.6%. The AC50 under setting [2] is 3.26 µM [falling, partial curve].

For `Cc1ccccc1NC(=S)N(Cc1cccs1)C1CCCC1`, the cell number change worked out at 67.3%.

On to `CC(C)c1ccc(S(=O)(=O)N2CCN(C(=O)CCNC(=O)Nc3ccccc3)CC2)cc1`, for which the cell number change came to 7.48%. The AC50 under setting [2] is 0.00517 µM [falling, full curve, poor fit].

Take `Cc1cnc(-c2nnc(N(C)C(=O)C3CCCO3)s2)cn1` (stereo not drawn): the cell number change worked out at 27.7%. The AC50 under setting [1] is 3.26 µM [rising, full curve, poor fit].

As to `O=C(NC1CCCC1)C1CCN(S(=O)(=O)c2ccccc2)CC1`, the cell number change is -14.5%.

`O=C(COc1ccc(S(=O)(=O)NC2CCCCC2)cc1Cl)NCc1ccc2c(c1)OCO2`: the cell number change turned out to be 58.5%. Besides, under setting [1], the AC50 was 16.4 µM [rising, partial curve]. For the same compound, the AC50 under setting [2] was 9.2 µM [rising, partial curve].

For the compound `CC(C)C[C@H](NC(=O)c1nc[nH]c1C(=O)NCC(=O)OCc1ccccc1)C(=O)OCc1ccccc1`, the cell number change came to 21%. Further, the AC50 under setting [1] was 7.31 µM [rising, single point]. Further, the AC50 under setting [2] is 29.1 µM [falling, single point].

In the case of `Clc1ccc(CSc2nnc(-c3ccncc3)o2)c(Cl)c1`, the cell number change is -20.7%. Also, the AC50 under setting [2] is 0.92 µM [rising, full curve, poor fit].

On to `Cc1ccc2nc(N3C(=O)CNC3=S)sc2c1`, for which the cell number change is -24.4%. Besides, under setting [2], the concentration at half-maximal activity (AC50) is 7.31 µM [falling, full curve].

For the compound `C/C(Cl)=C/Cn1c(SCCN2CCOCC2)nc2c1c(=O)[nH]c(=O)n2C`, the cell number change was -15.1%.

For `Cc1ccnc(NS(=O)(=O)c2ccc(NC(=O)COc3ccccc3)cc2)n1`, the cell number change is -32.1%. Under setting [1], the concentration at half-maximal activity (AC50) is 32.6 µM [falling, single point].

Turning to `COc1cc(-c2nc3ccccn3c2NCC2CCCO2)ccc1O` (stereo not drawn), the cell number change was -4.58%. Also, the half-maximal activity concentration (AC50) under setting [2] was 6.51 µM [falling, partial curve, poor fit].

As to `Oc1ccc(Nc2ncnc3scc(-c4ccccc4)c23)cc1`, the cell number change was -18%. Also, the AC50 under setting [1] was 0.164 µM [falling, full curve, poor fit]. For the same compound, the half-maximal activity concentration (AC50) under setting [2] was 4.11 µM [falling, single point].

As to `Cc1ccc2cc(C#N)c(NCCNC(=O)C3CCC3)nc2c1C`, the cell number change was -0.312%. Moreover, under setting [2], the AC50 was 0.82 µM [rising, partial curve].

Turning to `O=C(CC1Nc2ccccc2NC1=O)Nc1ccccc1NC(=O)CC1Nc2ccccc2NC1=O` (stereo not drawn), the cell number change was 5.82%. In addition, under setting [2], the AC50 is 25.9 µM [rising, single point].

Regarding `COc1cccc(NC(=O)N2CCN(c3ccc(C(F)(F)F)cn3)CC2)c1`, the cell number change is 0.968%.

Consider `COc1ccc(NC(=O)CN2CCN(S(=O)(=O)c3ccc(C(C)C)cc3)CC2)cc1OC`, for which the cell number change was -7.19%. Also, under setting [2], the AC50 was 1.46 µM [rising, partial curve].

In the case of `COc1ccc(NC(=O)CCNS(=O)(=O)c2ccc(NC(C)=O)cc2)cc1Cl`, the cell number change came out at 12.2%.

Regarding `CC1CN(C(=O)N2CCCCC2)CCN1C(=O)N1CCCCC1` (stereo not drawn), the cell number change was -11%. Also, the AC50 under setting [2] was 0.651 µM [falling, single point].

Consider `CCSc1ccc([C@@H]2[C@H]3C(=O)N(C)C(=O)[C@H]3[C@]3(C(=O)OC)CCCCN23)cc1`, for which the cell number change is -34.8%. Moreover, the AC50 under setting [1] is 9.2 µM [falling, partial curve, poor fit].

For `CC1CCCCN1S(=O)(=O)c1ccc(C(=O)Nc2nnc(-c3cccs3)o2)cc1` (stereo not drawn), the AC50 by setting is: under setting [1], 0.326 µM [falling, full curve, poor fit]; under setting [2], 4.11 µM [rising, partial curve].

For the compound `CC/C(=N\NC(=O)c1nnn(-c2nonc2N)c1-c1ccc2c(c1)OCO2)c1ccccc1`, the cell number change was determined as 0.612%. In addition, the AC50 under setting [2] is 29.1 µM [rising, single point].

For the compound `CCCCOC(=O)CCCc1ccc([N+](=O)[O-])cc1[N+](=O)[O-]`, the cell number change is -9%. For the same compound, the AC50 under setting [1] is 0.731 µM [falling, single point].

As for `Cc1occc1C(=O)N1CCN(c2ncccn2)CC1`, the cell number change came out at 4.24%. In addition, the AC50 under setting [1] is 0.82 µM [falling, full curve]. Besides, the AC50 under setting [2] is 2.31 µM [falling, partial curve].

Take `O=C(CCC(=O)N(CC(=O)NC1CCCCC1)Cc1ccccc1)Nc1ccccn1`: the cell number change was -15.3%. Besides, the AC50 under setting [2] was 16.4 µM [falling, partial curve, poor fit].

For `COCc1nc2ccccc2n1Cc1ccccc1Br`, the cell number change is -17.2%.

Consider `CC1(C)CC(=O)C2=C(C1)OC1=C(C2)C(=O)CC(C)(C)C1`, for which the cell number change is -53.5%. Further, the AC50 under setting [1] is 29.1 µM [falling, single point]. In addition, the AC50 under setting [2] was 25.9 µM [falling, single point].

Regarding `Nc1nc(-c2nc3ccccc3[nH]2)cs1`, the AC50 under setting [1] was 0.82 µM [rising, partial curve] and the AC50 under setting [2] is 0.366 µM [rising, full curve].

Turning to `CN(C)c1nnnn1-c1ccc(OC(F)(F)F)cc1`, the cell number change is -50.6%. Besides, the AC50 under setting [1] is 0.0517 µM [falling, full curve].

Regarding `FC(F)(F)c1cccc(NC(=S)NCC2COc3ccccc3O2)c1` (stereo not drawn), the cell number change was -31.1%. For the same compound, under setting [1], the AC50 was 18.4 µM [falling, single point]. The AC50 under setting [2] is 29.1 µM [falling, single point].

`CCOC(=O)C1=C(COC(=O)CCCOc2ccccc2)NC(=O)NC1C` (stereo not drawn): the cell number change was -24.9%.

For the compound `N/C(=N\OC(=O)COc1ccc2ccccc2c1)c1cccnc1`, the cell number change turned out to be 6.42%. In addition, under setting [1], the AC50 was 2.91 µM [rising, single point]. Besides, the AC50 under setting [2] is 3.26 µM [rising, partial curve].

`Cc1ccc(C(=O)Nc2ccccc2C(=O)NCc2ccccc2)cc1`: the cell number change was -8.11%. The AC50 under setting [2] is 0.58 µM [rising, partial curve, poor fit].

As for `CCn1nc(C)c(C(=O)Nc2cc(Oc3ccc(Cl)cc3)cc([N+](=O)[O-])c2)c1C`, the cell number change was determined as 8.44%. Further, the AC50 under setting [2] is 4.11 µM [rising, single point].

With `CNc1nc2c(-c3ccc(Cl)cc3)nnn2c2ccccc12`, the cell number change was -12.5%.

Turning to `CCC(CC)NC(=O)/C=C/c1cccc([N+](=O)[O-])c1`, the cell number change is 8.31%. The AC50 under setting [2] was 18.4 µM [rising, single point].

For `CCOC(=O)Cc1c(Sc2ccccc2)c2ccccc2n1C`, the cell number change is 3.13%. Further, under setting [2], the AC50 is 0.00651 µM [rising, full curve, poor fit].

Take `COCCCn1c(Cc2ccccc2)nnc1SCC(=O)N1CCCCC1`: the cell number change is -9.08%.

For the compound `CC(=O)NCCOC(=O)c1nn(Cc2ccccc2)c(=O)c2ccccc12`, the cell number change turned out to be 8.4%. The AC50 under setting [2] is 6.51 µM [rising, single point].

In the case of `CCCOc1ccc(OCCSc2nnc(N)s2)cc1`, the AC50 under setting [2] was 0.116 µM [rising, full curve].

On to `Cc1ccccc1NC(=O)C1CCCN1S(=O)(=O)c1ccc2c(c1)n(C)c(=O)c(=O)n2C` (stereo not drawn), for which the cell number change was -20.6%. Besides, the AC50 under setting [2] was 23.1 µM [falling, single point].

Consider `Clc1ccc(Cn2ncc3c(NCc4ccccc4)ncnc32)c(Cl)c1`, for which the cell number change is 2.3%. The AC50 under setting [2] is 20.6 µM [rising, single point].

Take `CC(C)(C)NC(=O)CN(C(=O)CNC(=O)c1cccs1)c1ccccc1F`: the cell number change is -6.67%.

Regarding `Cc1ccc(S(=O)(=O)N2CC3CCCN3c3ccc(C(F)(F)F)cc32)cc1` (stereo not drawn), the cell number change was 34.7%. In addition, under setting [1], the AC50 was 29.1 µM [rising, single point].

On to `O=C(COc1ccc(-c2nnco2)cc1)Nc1c(F)cccc1F`, for which the cell number change turned out to be 1.15%. Also, the AC50 under setting [2] is 18.4 µM [rising, single point].

As to `O=C(Nc1ccc2c(c1)OCO2)c1ccc2c(c1)OCO2`, the cell number change was found to be 73.7%. Moreover, under setting [1], the concentration at half-maximal activity (AC50) is 0.00461 µM [rising, full curve, poor fit]. Besides, the AC50 under setting [2] was 6.51 µM [rising, single point].

`CCOc1ccccc1NC(=O)CCCNC(=O)c1ccc(Cl)cc1`: the cell number change is 2.78%.

Take `CCC1CCCCN1S(=O)(=O)Cc1ccccc1Cl` (stereo not drawn): the cell number change is -44.4%.

Regarding `COc1ccccc1CNC(=O)c1cc(C2CC2)nc2c1cnn2C(C)C`, the cell number change is -38.8%. Besides, the AC50 under setting [1] was 29.1 µM [falling, single point]. In addition, under setting [2], the AC50 was 16.4 µM [falling, single point].

Turning to `COc1cc(/C=N/NC(=O)COc2ccccc2C)ccc1OC(=O)c1cccs1`, the cell number change was found to be 38.7%.

On to `N#Cc1ccccc1OCCn1cncn1`, for which the cell number change is -2.36%.

For `CC(C)C[C@H](NC(=O)OC(C)(C)C)C(=O)N[C@@H](CO)[C@H](O)[C@@H]1C[C@@H]1C(=O)NC1CC1`, the cell number change was found to be 23.6%.

Regarding `CCOc1ccccc1N(CC(=O)NC1CCCCC1)C(=O)CCC(=O)Nc1nccs1`, the cell number change is -7.62%. Also, the AC50 under setting [2] was 6.51 µM [rising, single point].

Take `COc1cccc(CNC(=O)c2cc3oc4ccccc4c3n2C)c1OC`: the cell number change is 3.36%. In addition, the AC50 under setting [2] was 7.31 µM [rising, partial curve].
